Source: patent publication US9637520B2, “Template-fixed peptidomimetics with CXCR7 modulating activity” (POLYPHOR AG, priority 2010, dated 2017)
At least one compound was matched to its structure with a doubt left. Non-standard residues stand in square brackets, D forms with d. Residues, ends and D or L forms follow the SMILES beside them. dPro(cis-4-NH2) = N[C@H]1CN[C@@H](C(=O)O)C1; Tic = O=C(O)[C@@H]1Cc2ccccc2CN1; Pip = O=C(O)[C@@H]1CCCCN1

Amino acid sequences for entries named in this document (tags omitted). A change or cut given only in a name is not applied to a line headed by its entry.
UniProt P25106: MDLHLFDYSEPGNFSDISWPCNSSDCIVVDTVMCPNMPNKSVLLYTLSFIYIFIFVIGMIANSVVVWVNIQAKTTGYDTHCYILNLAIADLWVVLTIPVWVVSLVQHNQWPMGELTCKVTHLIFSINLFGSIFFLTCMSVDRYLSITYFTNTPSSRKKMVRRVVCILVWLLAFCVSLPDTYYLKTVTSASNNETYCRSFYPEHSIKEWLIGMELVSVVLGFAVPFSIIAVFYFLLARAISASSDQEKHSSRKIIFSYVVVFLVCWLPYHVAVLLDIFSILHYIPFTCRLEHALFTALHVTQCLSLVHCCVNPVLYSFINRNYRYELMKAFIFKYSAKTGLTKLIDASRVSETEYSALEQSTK

Target: T1, CXCR7 (Homo sapiens, UniProt P25106)
T1 construct: host or cells: CHO (PathHunter CHO-CXCR7 β-arrestin cells)
Assay: CXCR7 β-arrestin recruitment assay (PathHunter CHO-CXCR7, DiscoverX), agonistic assay
Type: cell-based
Conditions: CHO CXCR7 β-arrestin cells, 90 min at 37° C., chemiluminescence
Description: Lyophilized peptides were weighed on a Microbalance (Mettler MX5) and dissolved in DMSO to a final concentration of 10 mM unless otherwise stated. Stock solutions were kept at +4° C., and protected from light.
2.2 CXCR7 β-Arrestin Recruitment Assay
The PathHunter CHO-CXCR7 (DiscoverX) assay was performed according to the manufacturer's protocol. In brief, CHO CXCR7 β-arrestin cells were seeded at a density of 5000 cells per well in 40 μl of F12 medium in black 96-half volume well culture plates and incubated overnight at 37° C. in a humidified atmosphere with 5% CO2. The next day, serial dilutions of PEM compounds have been prepared in DMSO and subsequently diluted in HBSS buffer containing 0.1% BSA.
For agonistic assay, 10 μl of compound solution or a solution of stromal cell-derived factor-1 (SDF-1) as positive control was added to the cells with a final DMSO concentration of 1% (v/v). The plate was incubated for 90 min at 37° C. in 5% CO2 incubator with gentle shaking (300 rpm) before addition of 40 μl of detection reagent per well. Reaction was developed for 90 min at room temperature in the dark with shaking, and chemiluminescence was measured with a Topcount (Perkin Elmer) luminescence counter.

SMILES: N=C(N)NCCC[C@@H]1NC(=O)[C@H](Cc2c[nH]c3ccccc23)NC(=O)[C@@H](Cc2ccccc2)NC(=O)[C@@H]2CCCCN2C(=O)[C@@H]2Cc3ccccc3CN2C(=O)[C@H]2C[C@@H](N)CN2C1=O [compound 34, cyclo(-Pip-^DPhe-Trp-Arg-^DPro((4R)NH2)-Tic-)] (cyclo([Pip][dF]WR[dPro(cis-4-NH2)][Tic]))
- EC50: 882 ± 42.3 nM
